Results as given in PubChem BioAssay AID330 (DTP/NCI, 2004).
The list does not hold the whole screen: it is rich in T/C values a quarter to a half above the control, in often repeated tests (any T/C) and in doses without a T/C. Further doses and runs are listed elsewhere. T/C gives the treated animals as a percentage of the vehicle group. Some doses have a count of surviving animals in place of a T/C: the source files T/C as zero there, which appears to mark a toxic dose or a test without result, not a measured value. Some survivor counts are full or nearly so, which does not show that the dose was tolerated: survival well below the control is almost never listed, so the zero probably covers shortened survival too. Survivors were counted at the toxicity check, usually on the fifth day, unless a day is given; later deaths do not show. Schedules are NCI's codes, taken here to give the interval after Q, in days (D) or hours (H), and the number of doses after X. Some entries hold several experiments; their values stand side by side, smallest first. Where survival is the endpoint, the PubChem record calls one and a half times the control and up active, and a quarter to a half above the control has no call in these data; cut-offs in other NCI protocols can differ. Some T/C values are followed by the survivors on the day toxicity was checked, most often the fifth; without a count, all were alive then.

Tested on: P388 leukemia ip, CD2F1 mice, survival T/C
Test: NCI In Vivo Anticancer Drug Screen. Data for tumor model P388 Leukemia (intraperitoneal) in CD2F1 (CDF1) mice
Details: T/C endpoint: median survival time, higher T/C = longer survival
[1] = dose: 50.0 mg/kg/injection, schedule: Q01DX005 (ip), vehicle: saline with Tween-80
[2] = dose: 100.0 mg/kg/injection, schedule: Q01DX005 (ip), vehicle: Klucel (hydroxypropylcellulose) (HPC)
[3] = dose: 200.0 mg/kg/injection, schedule: Q01DX005 (ip), vehicle: Klucel (hydroxypropylcellulose) (HPC)
[4] = dose: 100.0 mg/kg/injection, schedule: Q01DX005 (ip), vehicle: saline with Tween-80
[5] = dose: 200.0 mg/kg/injection, schedule: Q01DX005 (ip), vehicle: saline with Tween-80
[6] = dose: 100.0 mg/kg/injection, schedule: Q01DX009 (ip), vehicle: saline with Tween-80
[7] = dose: 200.0 mg/kg/injection, schedule: Q01DX009 (ip), vehicle: saline with Tween-80
[8] = dose: 240.0 mg/kg/injection, schedule: Q01DX005 (ip), vehicle: saline with Tween-80
[9] = dose: 200.0 mg/kg/injection, schedule: Q01DX005 (ip), vehicle: saline
[10] = dose: 400.0 mg/kg/injection, schedule: Q04DX003 (ip), vehicle: saline
[11] = dose: 50.0 mg/kg/injection, schedule: Q01DX005 (ip), vehicle: Klucel (hydroxypropylcellulose) (HPC)
[12] = dose: 120.0 mg/kg/injection, schedule: Q01DX005 (ip), vehicle: Klucel (hydroxypropylcellulose) (HPC)
[13] = dose: 25.0 mg/kg/injection, schedule: Q01DX009 (ip), vehicle: saline with Tween-80

For `C[C@@H](O)[C@H](NSc1ccccc1[N+](=O)[O-])C(=O)NCCc1nc(-c2nc(C(=O)NCCCBr)cs2)cs1`, the survivor count [1] was 5 of 5.

For `O=C(O)CCC(=O)C1=CSC(=C2SC=CS2)S1`, the survivor count (dose: 120.0 mg/kg/injection, schedule: Q01DX005 (ip), vehicle: Klucel + Tween-80) was 1 of 6 and the survivor count (dose: 240.0 mg/kg/injection, schedule: Q01DX005 (ip), vehicle: Klucel + Tween-80) was 0 of 6.

In the case of `C1=CCC(CC[Si]23OCCN(CCO2)CCO3)CC1` (stereo unspecified), the survivor count [2] was 5 of 6 and the survivor count [3] was 4 of 6.

With `CC(=O)OCC(=O)[C@@]12OC(C)(C)O[C@@H]1C[C@H]1[C@@H]3CC(C=O)=C4C=C(OCCCl)CC[C@]4(C)[C@@]3(F)[C@@H](O)C[C@@]12C` the T/C (dose: 3.13 mg/kg/injection, schedule: Q01DX009 (ip), vehicle: Klucel (hydroxypropylcellulose) (HPC)) was 135 % of control and the T/C (dose: 6.25 mg/kg/injection, schedule: Q01DX009 (ip), vehicle: Klucel (hydroxypropylcellulose) (HPC)) was 135 % of control.

`Cn1c(COc2ccc(/C=N\N/C(N)=N/N=C/c3ccc(OCc4c[n+]5ccccc5n4C)cc3)cc2)c[n+]2ccccc12` was tested, and the survivor count [1] was 0 of 6 and 1 of 6, the survivor count [4] was 0 of 6 and the survivor count [5] was 0 of 6.

With `CCOc1ccc(NC(=O)C(=O)NNC(=S)NC)cc1` the survivor count [6] was 6 of 6 and the survivor count [7] was 4 of 6.

In the case of `COc1ccc2c(Cl)ccnc2c1OC`, the survivor count [5] was 0 of 6.

For `C/C(=N\NC(=S)N1CC(C)OC(C)C1)c1ncccn1` (stereo unspecified), the survivor count (dose: 30.0 mg/kg/injection, schedule: Q01DX005 (ip), vehicle: saline with Tween-80) was 4 of 6, the survivor count (dose: 60.0 mg/kg/injection, schedule: Q01DX005 (ip), vehicle: saline with Tween-80) was 5 of 6 and the survivor count (dose: 120.0 mg/kg/injection, schedule: Q01DX005 (ip), vehicle: saline with Tween-80) was 0 of 6. The survivor count [8] was 0 of 6.

For `CC(=O)NC(=S)Nc1cccs1`, the survivor count (dose: 50.0 mg/kg/injection, schedule: Q01DX009 (ip), vehicle: saline with Tween-80) was 5 of 6, the survivor count [6] was 5 of 6 and the survivor count [7] was 0 of 6.

In the case of `CC(C)(C)OOCC1CO1` (stereo unspecified), the T/C [6] was 140 % of control, the T/C [7] was 127 % of control and the survivor count (dose: 400.0 mg/kg/injection, schedule: Q01DX009 (ip), vehicle: saline with Tween-80) was 2 of 6.

For `O=[N+]([O-])c1ccccc1N/N=C\c1c(Cl)[nH]c2ccccc12`, the survivor count [3] was 6 of 6.

In the case of `Cn1c2c([N+](=O)[O-])cccc2c(=O)c2c(O)cc3c(c21)C=CC(C)(C)O3`, the survivor count (dose: 400.0 mg/kg/injection, schedule: Q01DX001 (ip), vehicle: saline with Tween-80) was 6 of 6.

With `CC(C)NC1(N(C)C)N=C(N(C)C)N=C(N(C)C)O1` (stereo unspecified) the survivor count [9] was 0 of 6.

In the case of `CC(=O)CC(=O)c1ccc(C)cc1.CC(=O)CC(=O)c1ccc(C)cc1.[Cu]`, the survivor count [6] was 0 of 6 and 3 of 6 and the survivor count [7] was 6 of 6.

With `O=C(CCl)NCc1ccccc1` the survivor count [10] was 4 of 6.

For `C=C(C)C#CCN(CCO)C(C)C`, the survivor count [8] was 0 of 6.

In the case of `CNC(=O)OCC1=C(COC(=O)NC)C(=O)c2ccccc2C1=O`, the survivor count [11] was 0 of 6, the survivor count [2] was 0 of 6 and the survivor count [3] was 0 of 6.

For `COc1cccc(C2CC(C)(O)Oc3cc4c(cc32)OCO4)c1` (stereo unspecified), the survivor count [12] was 6 of 6 and the survivor count (dose: 240.0 mg/kg/injection, schedule: Q01DX005 (ip), vehicle: Klucel (hydroxypropylcellulose) (HPC)) was 6 of 6.

With `CN1CCN(C(=O)N2CCCc3ccccc32)CC1` the survivor count [10] was 0 of 6.

In the case of `O=C1C(Cl)=C(Sc2nc3ccccc3s2)C(=O)c2ccccc21`, the survivor count [1] was 3 of 5.

With `O=C(NN(Cn1c(=S)sc2ccccc21)Cn1c(=S)sc2ccccc21)c1ccncc1` the survivor count (dose: 25.0 mg/kg/injection, schedule: Q01DX009 (ip), vehicle: Klucel (hydroxypropylcellulose) (HPC)) was 6 of 6, the survivor count (dose: 50.0 mg/kg/injection, schedule: Q01DX009 (ip), vehicle: Klucel (hydroxypropylcellulose) (HPC)) was 6 of 6 and the survivor count (dose: 100.0 mg/kg/injection, schedule: Q01DX009 (ip), vehicle: Klucel (hydroxypropylcellulose) (HPC)) was 6 of 6. For the same compound, the survivor count (dose: 200.0 mg/kg/injection, schedule: Q01DX009 (ip), vehicle: Klucel (hydroxypropylcellulose) (HPC)) was 5 of 6.

`c1ccc2c3c([nH]c2c1)C1CC2CCCCC2CN1CC3` (stereo unspecified) was tested, and the survivor count [8] was 0 of 6.

In the case of `Cc1ccc(N2C(=O)N(c3ccc(C)cc3)C3(Sc4ccccc4N3C)C2=O)cc1` (stereo unspecified), the survivor count (dose: 200.0 mg/kg/injection, schedule: Q04DX002 (ip), vehicle: saline with Tween-80) was 6 of 6 and the survivor count (dose: 400.0 mg/kg/injection, schedule: Q04DX002 (ip), vehicle: saline with Tween-80) was 6 of 6.

For `C/C=C(\C)C(=O)OC1C2C(C)=CC(=O)C(O)C2(C)C2C3(O)OCC24C1OC(=O)C(O)C4C(C)C3O` (stereo unspecified), the T/C (dose: 5.0 mg/kg/injection, schedule: Q01DX005 (ip), vehicle: saline) was 145 % of control, the survivor count (dose: 60.0 mg/kg/injection, schedule: Q01DX005 (ip), vehicle: Klucel (hydroxypropylcellulose) (HPC)) was 0 of 6 and the survivor count [12] was 0 of 6.

In the case of `CCCCCC(=N\N=C(N)N)/C(C)=N/N=C(N)N`, the survivor count (dose: 100.0 mg/kg/injection, schedule: Q01DX005 (ip), vehicle: saline) was 0 of 6 and the survivor count [9] was 0 of 6.

For `CN(C)Cc1ccc2ccccc2c1O`, the survivor count (dose: 200.0 mg/kg/injection, schedule: Q01DX009 (ip), vehicle: saline) was 5 of 6.

In the case of `CCC[CH2][Sn]1([CH2]CCC)[O]C(=O)CCSCCC(=O)[O]1`, the T/C (dose: 6.25 mg/kg/injection, schedule: Q01DX005 (ip), vehicle: saline with Tween-80, evaluated on day 20) was 126 % of control, the T/C (dose: 6.25 mg/kg/injection, schedule: Q01DX005 (ip), vehicle: saline with Tween-80, evaluated on day 35) was 126 % of control and the survivor count (dose: 12.5 mg/kg/injection, schedule: Q01DX005 (ip), vehicle: saline with Tween-80) was 0 of 6, 1 of 6, 2 of 6. The survivor count [1] was 0 of 6, the survivor count [4] was 0 of 6 and the survivor count [5] was 0 of 6.

With `Cc1sc(C)c2c1C[Se]Cc1c(C)sc(C)c1C[Se]C2` the survivor count (dose: 100.0 mg/kg/injection, schedule: Q01DX001 (ip), vehicle: saline with Tween-80) was 6 of 6 and the survivor count (dose: 200.0 mg/kg/injection, schedule: Q01DX001 (ip), vehicle: saline with Tween-80) was 6 of 6.

For `CN(C)CCOc1ccc2c(c1)C/C(=C/c1ncc([N+](=O)[O-])n1C)C2=O`, the T/C (dose: 30.0 mg/kg/injection, schedule: Q01DX009 (ip), vehicle: saline with Tween-80) was 129 % of control, the T/C (dose: 45.0 mg/kg/injection, schedule: Q01DX009 (ip), vehicle: saline with Tween-80) was 126 % of control [5 of 6 alive] and the T/C (dose: 60.0 mg/kg/injection, schedule: Q01DX009 (ip), vehicle: saline with Tween-80) was 137 % of control. The T/C (dose: 90.0 mg/kg/injection, schedule: Q01DX009 (ip), vehicle: saline with Tween-80) was 125 and 134 % of control.

For `CC1(C)N=C(N)N=C(N)N1c1ccc(CNC(=O)Nc2ccc(S(=O)(=O)F)cc2)cc1`, the T/C (dose: 50.0 mg/kg/injection, schedule: Q04DX003 (ip), vehicle: saline) was 145 % of control.

For `C=CC(C)NC(=S)NNC(=S)NC` (stereo unspecified), the survivor count (dose: 400.0 mg/kg/injection, schedule: Q01DX005 (ip), vehicle: Klucel (hydroxypropylcellulose) (HPC)) was 0 of 5.

In the case of `N#Cc1c(Cl)nc2sccn12`, the survivor count (dose: 400.0 mg/kg/injection, schedule: Q01DX001 (ip), vehicle: Klucel (hydroxypropylcellulose) (HPC)) was 0 of 6.

With `COc1ccc2[nH]cc(CCN(C)C)c2c1` the T/C [13] was 125 % of control.

In the case of `CCCCCC(O)C1C(=O)OC(C)C(O)/C=C/C=C/C=C/C=C\C=C(\C)C(O)CC(O)CC(O)CC(O)CC(O)CC(O)CC1O` (stereo unspecified), the survivor count (dose: 40.0 mg/kg/injection, schedule: Q04DX003 (ip), vehicle: other) was 0 of 6.

`Nc1ccc2[se]nc3c2c1C(=O)c1ccccc1-3` was tested, and the survivor count [11] was 5 of 6, the survivor count [2] was 3 of 6 and the survivor count [3] was 1 of 6.

In the case of `Cc1ccc2c(/C=C/c3ccc(N(C)C)cc3)ccnc2c1C`, the T/C [13] was 133 % of control.
